Data reported in article doi:10.1101/697185.

Chains of the proteins cited; added tags and fusions are not shown. Residues count along the entry.
UniProt Q9Y375, residues 25-327: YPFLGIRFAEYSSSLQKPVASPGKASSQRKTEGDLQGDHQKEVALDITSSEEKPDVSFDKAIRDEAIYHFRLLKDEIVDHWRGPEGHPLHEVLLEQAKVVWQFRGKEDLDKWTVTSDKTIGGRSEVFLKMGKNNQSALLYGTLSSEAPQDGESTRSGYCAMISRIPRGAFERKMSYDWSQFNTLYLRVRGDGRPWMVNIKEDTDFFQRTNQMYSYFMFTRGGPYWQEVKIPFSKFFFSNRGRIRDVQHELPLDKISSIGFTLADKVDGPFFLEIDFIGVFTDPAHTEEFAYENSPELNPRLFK
UniProt Q9P032: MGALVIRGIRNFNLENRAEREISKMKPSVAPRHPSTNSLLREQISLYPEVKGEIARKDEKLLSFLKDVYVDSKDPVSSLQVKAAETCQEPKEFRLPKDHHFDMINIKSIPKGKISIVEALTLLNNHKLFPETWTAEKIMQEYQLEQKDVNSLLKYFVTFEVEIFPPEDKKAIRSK

T1: BirA*-tagged TMEM70 (human) (UniProt Q9BUB7)
T1 sequence: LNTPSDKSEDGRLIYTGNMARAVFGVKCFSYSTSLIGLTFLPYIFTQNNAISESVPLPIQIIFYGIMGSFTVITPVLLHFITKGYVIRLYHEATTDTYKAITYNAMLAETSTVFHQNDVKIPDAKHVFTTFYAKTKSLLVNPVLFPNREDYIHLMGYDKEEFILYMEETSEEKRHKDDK


Each molecule was assayed against T1, BirA*-tagged TMEM70 (human) (assay: proximity labelling).

Row | binding | Molecule
1 | binds | NDUFAF1 (from UniProt Q9Y375 25-327)
2 | binds | NDUFAF2 (human (endogenous in HEK293))
3 | binds | NDUFAF4 (from UniProt Q9P032 1-175)
4 | binds | NDUFAF5 (protein, UniProt Q5TEU4 37-345) GSTSPRTLNIFDRDLKRKQKNWAARQPEPTKFDYLKEEVGSRIADRVYDIPRNFPLALDLGCGRGYIAQYLNKETIGKFFQADIAENALKNSSETEIPTVSVLADEEFLPFKENTFDLVVSSLSLHWVNDLPRALEQIHYILKPDGVFIGAMFGGDTLYELRCSLQLAETEREGGFSPHISPFTAVNDLGHLLGRAGFNTLTVDTDEIQVNYPGMFELMEDLQGMGESNCAWNRKALLHRDTMLAAAAVYREMYRNEDGSVPATYQIYYMIGWKYHESQARPAERGSATVSFGELGKINNLMPPGKKSQ

These are yes or no findings as the source states them, for the method shown. In cells and extracts the contact can be indirect. These calls come from enrichment with a bait or labelling near it, and not all partners need be listed. Tags and fused reporters may be left off the sequences shown.
